PMC10163288
The list shows a part of the results.

B1: il2ra_site1_2b5i_normal_mot_HHH_b2_04910_000000118_0001_1_19_H_._HHH_b1_03031_0001_0000300038_0000001_0_af2pred_0001_af2pred (protein)
chain: SSSSSSQELLREADELAKNGNDEEAAEVLEEAYRIAKELGNRSMLKLIEAALKLVEALLGSSSSS
B2: il2ra_site1_1z92_sap_17_mot_HHH_b1_00561_af2_000000294_0001_1_19_H_._HHH_eva_0050_af2_0002_0000300053_0000001_1_0001_af2pred_0001_af2pred (protein)
chain: SSSSSSEQELAELLIRLIAKLGLSLEQIKELLELVRRLIERGVSEEEAERLIRELAEELSSSSSS
B3: il2ra_site1_3nfp_sap_19_mot_HHH_b2_04939_000000051_0001_20_36_H_._HHH_b1_01129_af2_0001_0000300012_0000001_0_0001_af2pred_0001_af2pred_1_swapped (protein)
chain: DEEEIKEEIRELLKRDPKEALQAAFKLLEEAERNKDPEAARVVLEAMLEVFGDPKLKRSLELARS
B4: il2ra_site1_3nfp_sap_8_mot_HHH_b1_02247_af2_000000083_0001_41_56_H_._ems_3hM_3687_0001_0000200009_0000001_0_0001_af2pred_0001_af2pred_swapped (protein)
chain: PFHELLERLLRRLGVPPEEIEEIREVLEKLSKLATKEAAKLAHELFRLVARGDPERVKELAKQIK
B5: il2ra_site1_3nfp_sap_13_mot_HHH_b1_00678_af2_000000150_0001_43_56_H_._HHH_b2_04216_af2_0001_0000100003_0000001_0_0001 (protein)
chain: DLKEAFKEAVEQLARVAGVPSVEVEEENGRFEVTVEGTNNDARVAKKVIEEAARSFGIEVELSEG
B6: il2ra_site2_2erj_sap_18_mot_HHH_b1_07806_000000211_0001_42_56_H_._HHH_b2_00355_0001_0000100005_0000001_0_0001_af2pred_0001_1_af2pred_swapped (protein)
chain: SSSSSDREEAEERIEELLEEAKHVPNKREAIELLQEAAELASEVDDPELLELVDEVLRRLSSSSS
B7: il2ra_site2_3nfp_sap_13_mot_HHH_b1_01221_af2_000000126_0001_40_57_H_._HHH_b1_08143_0001_0000200015_0000001_0_0001 (protein)
chain: SSSSDRSEEYVEVAIRLLKRAVENNDEEIVERLFHIVRLAAESNHDPELQREVEELFELLKSSSS
B8: il2ra_site2_3nfp_normal_mot_HHH_b1_01086_000000225_0001_20_36_H_._HHH_b2_03611_0001_0000500059_0000001_0 (protein)
chain: SSSSSEEEEKLEELLRELEELLKRDPEEAKRLLKEATNLAYEANDFEIFARLADISFALVSSSSS
B9: il2ra_site2_3nfp_sap_34_mot_HHH_b2_07213_000000002_0001_43_56_H_._4d83e183faf91f8a362147004bdfc8eb_0001_1_af2_0001_0000100006_0000001_0_0001 (protein)
chain: SSSSDVEERVRELLKEAEELLERGNPEEAKRVLAEAAHLAFEANNPELFFEIAELAFEVMGSSSS
B10: il2ra_site1_1z92_sap_14_mot_1581cc1c700002558836ca695aafbf97_0001_1_af2_000000099_0001_17_32_H_._d5167a162c519d043ddc16d89768c28c_0001_1_0001_0000100008_0000001 … (protein)
chain: SLEEEIERALKEAGVPPEEIEAIKRDIRRTQEFGIPPRSIALAVLRALKSHDEELAERVEELLRK
B11: il2ra_site1_2b5i_sap_23_mot_80f7b4c21c45092860cd8bceb88a7fbb_0001_000000049_0001_1_12_H_._b2d1899c17953ecbf06dd009f3b9ec57_0001_0001_0000100003_0000001_0_0001_a … (protein)
chain: SSSSSSKEELRRLLEELNELVQNEKYEEAKKLAEKLLELAKKLKDKFAERVAKLALELLESSSSS
B12: il2ra_site1_3nfp_sap_9_mot_cc4219192d8ccd35c40e7b68f9a57604_0001_af2_000000124_0001_16_32_H_._HHH_b1_05002_af2_0001_0001000017_0000001_0_0001 (protein)
chain: SRALERFVEQARKRGNPEFARVVEILLEVLELDPRLREEIDKIILRLVSGRLPPEEAERLAEELK
B13: il2ra_site2_2erj_normal_mot_af86707857d369f3e1d85dcabc5f9321_0001_000000201_0001_14_29_H_._HHH_b1_04070_af2_0001_0000300022_0000001_1 (protein)
chain: SSSSSEAEEEARELLEEAKRLLEEGNPEEALKVLSRAFVLAYKLGDHELAAEIIELTRLVASSSS
B14: il2ra_site1_1z92_normal_mot_HHH_b1_07120_000000092_0001_43_57_H_._HHH_b2_04866_af2_0001_0000500016_0000001_0_af2pred_0001_af2pred (protein)
chain: SSSSSSDDIEEILELLERAIRVRDEEEVEELLKEAERLARELNDENLLRDVEIVAELKSSSSSSS
B15: il2ra_site2_3nfp_sap_18_mot_HHH_b2_00429_000000100_0001_21_37_H_._HHH_b1_05778_0001_0000100011_0000001_0_0001_af2pred_0001_1_af2pred_swapped (protein)
chain: SSSSDEVEERVKELIEEAEELLKEGDHEEAERLAREALKLALEANDEELFLAVLRLLERILSSSS
B16: il2ra_site2_2erj_sap_19_mot_HHH_b2_01204_af2_000000056_0001_19_34_H_._HHH_b2_05885_af2_0001_0000300005_0000001_0_0001 (protein)
chain: SSSSDDNREQIEEAVRQALENGDYDLAEAVVRLLERFAKRAGDPELEKAAEELEELVEEYRSSSS
B17: il2ra_site1_3nfp_sap_15_mot_HHH_b2_00162_af2_000000036_0001_22_38_H_._HHH_b2_01540_0001_0000300009_0000001_0_0001_af2pred_0001_af2pred (protein)
chain: SSSSSDRTELLRRALELARRGNLEEAKELLEKLAEILEEEGDEEALRKVEADLRLIRKNESSSSS
B18: il2ra_site2_3nfp_normal_mot_HHH_b1_06613_af2_000000098_0001_23_40_H_._HHH_b1_05917_0001_0000100004_0000001_0 (protein)
chain: SSSSSEEEERIEELLEEAKRIEDEEEARRLVSRAAHLAYEIRNHELFAEIADLLFRLIQESSSSS
B19: il2ra_site1_3nfp_sap_8_mot_HHH_b1_06045_af2_000000189_0001_3_17_H_._HHH_b1_03192_0001_0000400017_0000001_0_0001_af2pred_0001_af2pred (protein)
chain: SSSSSDREEVEELLERAEESDDPRERAKLLEEALRIARETRDHETAREIFEVALRLVRGSSSSSS
B20: il2ra_site2_2erj_normal_mot_HHH_b1_06160_000000008_0001_39_56_H_._HHH_b1_00461_af2_0001_0000300014_0000001_0 (protein)
chain: SSSSDEEELRRLIEEARELIEEGNPEEAWRVLSRASELAFELGNFELYSEIAELTHELAKLSSSS
B21: il2ra_site2_3nfp_normal_mot_HHH_b2_03895_000000036_0001_1_18_H_._HHH_b2_03657_0001_0000100001_0000001_0 (protein)
chain: SSSSSDHEAYEKVLKLLKEALQIEDEERVRELLEEAQELAEEARSLVLRRSIEDLREALSSSSSS
B22: il2ra_site1_3nfp_normal_mot_119b7766384adbe86006a62bce89dba1_0001_af2_000000092_0001_18_32_H_._936cac0bedbaeeb6fc45f7bbb6d160e8_0001_0001_0000200021_0000001_0 (protein)
chain: DKAVKLAIRLAQLQDEELAELLEEVVRLLKEEGDPRLLELLDEAMQLIARGNPEEAKRVLEEALK
B23: il2ra_site2_2erj_normal_mot_HHH_b2_07568_000000046_0001_18_34_H_._HHH_b2_01431_af2_0001_0000100005_0000001_0 (protein)
chain: SSSSEEAEKLLEEAKELLKKGNPEEADKVLRRASELAFRLGDFELFSELSELFEEADKLQRSSSS
B24: il2ra_site1_3nfp_sap_16_mot_HHH_b2_00286_000000273_0001_43_57_H_._HHH_b1_07840_0001_0000300031_0000001_0_0001 (protein)
chain: SIEMYVEKAEELDPRLEELLKRALELIQELGDPELARLLIKVVALLELGDPETEKEAEELLREIE

Molecular target: il2ra, P01589
Test: yeast display titration

Apparent Kd, inactive:
B1 no binding seen
B2 no binding seen
B3 no binding seen
B4 no binding seen
B5 no binding seen
B6 no binding seen
B7 no binding seen
B8 no binding seen
B9 no binding seen
B10 no binding seen
B11 no binding seen
B12 no binding seen
B13 no binding seen
B14 no binding seen
B15 no binding seen
B16 no binding seen
B17 no binding seen
B18 no binding seen
B19 no binding seen
B20 no binding seen
B21 no binding seen
B22 no binding seen
B23 no binding seen
B24 no binding seen

A portion from the list above, as a working copy:
Apparent Kd, inactive:
B20 no binding seen
B21 no binding seen
B22 no binding seen
B23 no binding seen
B24 no binding seen
